From PubChem BioAssay AID652054 (National Center for Advancing Translational Sciences (NCATS), 2013)
Screen size: about 360,000 compounds; about 9,100 (2.5%) were called active. The inconclusive results got no clear call from the source; some entries with a clear call stand among them for comparison. Rule as the data show it: active = max response below about -50%; inconclusive = no clear call, values can overlap the other calls; inactive = above that.

Amino acid sequences for entries named in this document (tags omitted).
UniProt P35462, whole entry, looked up: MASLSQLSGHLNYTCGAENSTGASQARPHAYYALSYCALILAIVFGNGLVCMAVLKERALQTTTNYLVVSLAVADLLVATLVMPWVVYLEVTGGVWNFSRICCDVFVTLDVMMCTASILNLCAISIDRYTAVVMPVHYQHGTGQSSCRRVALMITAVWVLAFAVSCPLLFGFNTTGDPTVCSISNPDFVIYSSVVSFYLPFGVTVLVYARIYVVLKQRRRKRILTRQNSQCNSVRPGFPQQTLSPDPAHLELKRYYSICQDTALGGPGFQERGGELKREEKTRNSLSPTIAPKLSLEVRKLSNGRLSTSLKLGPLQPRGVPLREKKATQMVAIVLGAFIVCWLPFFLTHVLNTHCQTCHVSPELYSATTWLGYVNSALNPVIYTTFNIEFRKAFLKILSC

Target: D(3) dopamine receptor (Homo sapiens) (UniProt P35462)
Test: qHTS of D3 Dopamine Receptor Antagonist: qHTS
Details: D3R cells, DiscoveRx beta-arrestin luminescence, antagonist mode; active compounds read low
Outline: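 Cells plated overnight at 1500 cells/well, then exposed to library compounds with dopamine controls for 90 minutes at 37 degrees C. DiscoveRx reagent added for 30–60 minutes at room temperature; luminescence read, quantitative HTS format.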
% is scaled to controls: 0 for no effect and ±100 for the full control effect.

| Compound | max response, negative = inhibition |
| --- | --- |
| COc1ccccc1N1CCN(C(c2cc3ccc(C)cc3[nH]c2=O)c2nnnn2C2CCCC2)CC1 (configuration not stated) | active: -69.8% |
| CC1Cc2ccccc2N1S(=O)(=O)c1cnc(Cl)c(Br)c1 (configuration not stated) | inconclusive: -41.3% |
| CCNC(=O)CC1C(=O)N(CC)C(=S)N1NC(=O)c1ccc(Cl)cc1 (configuration not stated) | inconclusive: -31.9% |
| COc1ccc(-n2cc(CNCCc3cnc[nH]3)c(-c3cccc(F)c3)n2)cc1 | inconclusive: -46.1% |
| O=C(N/N=C/c1cc2c(cc1Cl)OCO2)c1ccc2c(c1)OCCO2 | inconclusive: -32.2% |
| CN1c2ccsc2C(O)=C(C(=S)Nc2ccc(F)c(Cl)c2)S1(=O)=O | active: -93.4% |
| N#C/C(=N\Nc1ccc(F)cc1)C(=O)C1CC1 | inactive: -9.4% |
| CNC[C@H](CC1CCCCC1)NC[C@H](NCCC1CCCC1)[C@H](C)O | inconclusive: -30% |
| COc1cc(OC)c2c(-c3ccccc3)cc(=O)oc2c1 | inactive: -5.39% |
| O=C(/C=C/c1ccc(F)cc1)NC(=S)Nc1ccccc1C(=O)NC1CCCCC1 | inactive: -11.9% |
| COc1ccc(C2=CC3=C(Br)C(=O)C(C)(OC(=O)c4cccs4)C(=O)C3=CO2)cc1 (configuration not stated) | active: -54.6% |
| COc1cc(Br)cc(CN2CCN(C/C=C/c3ccccc3)CC2)c1O | inconclusive: -40.1% |
| O=C(NCC(c1ccc(F)cc1)N1CCOCC1)c1cccc(Br)c1 (configuration not stated) | inactive: -9.06% |
| Cn1c(=O)c2c(nc(N3CCCCC3)n2CCCNC2=NCCCC2)n(C)c1=O | inconclusive: -49.7% |
| CC(C)CC(=O)Nc1ncc([N+](=O)[O-])s1 | inconclusive: -49.6% |
| CCS(=O)(=O)N1CCN(c2ccc([N+](=O)[O-])c(NCc3ccccc3)c2)CC1 | inconclusive: -40.9% |
| CCCCN(C)C(=O)c1ccc2c(c1)N(CC)C(=O)c1ccccc1S2=O (configuration not stated) | inactive: -0.468% |
| Cc1ccccc1NC(=O)c1ccc(Nc2c([N+](=O)[O-])cc([N+](=O)[O-])c3ccccc23)cc1 | active: -71% |
| CCOC(=O)C(=O)/C(C#N)=C/Nc1ccccc1 | active: -57.2% |
| COc1ccc2nc(NC(=O)CN3CCN(C)CC3)sc2c1 | active: -59% |
| COc1ccc(Cl)cc1NC(=O)CN(C)C(=O)c1ccc(-n2nc(C)cc2C)cc1 | inactive: -1.66% |
| O=C(NC(=S)Nc1ccc2[nH]c(=O)[nH]c2c1)c1cncc(Br)c1 | inconclusive: -38.5% |

| Compound | max response, negative = inhibition |
| --- | --- |
| C/C(C=O)=C/c1ccccc1 | inconclusive: -31.9% |
| CSc1cccc(NC(=O)C2CCCN(S(=O)(=O)c3cnc[nH]3)C2)c1 (configuration not stated) | inconclusive: -46.3% |
| CCOC(=O)C1=CC[C@H]2c3c(c4ccccc4n3C)C(=O)C1N2Cc1ccccc1 | inconclusive: -36.3% |
| O=C(Nc1ccnn1C1CCN(Cc2ccc(CO)o2)CC1)c1cccc(F)c1 | inconclusive: -41.6% |
| Cc1ccc(-c2nc(CS(=O)CC(=O)NC3CCCC3)c(C)o2)cc1 (configuration not stated) | inactive: 12.9% |
| O=C(O)c1nn2cc(CCO)cnc2c1Cl | inactive: -0.254% |
| CCOc1cc(/C=C2\CN(CC)C/C(=C\c3ccc(O)c(OCC)c3)C2=O)ccc1O | inconclusive: -39.7% |
| CNc1sc(C(=O)c2ccccc2F)c(N)c1-c1nc2ccccc2s1 | active: -52.5% |
| COCc1cc(C)[nH]c(=O)c1C#N | active: -53.4% |
| COc1ccccc1N(C)S(=O)(=O)c1ccc(C)c(C(=O)NCc2ccccn2)c1 | inconclusive: -38.4% |
| Cc1cc(C)cc(NC(=O)C[n+]2ccccc2)c1 | inconclusive: -49.7% |
| O=C(COc1ccc(Cl)cc1)Nc1ccc(N2CCN(C(=O)c3ccco3)CC2)cc1 | inactive: 10.8% |
| CC1(C)Cc2nc3oc4c(NCc5ccccc5)ncnc4c3cc2CO1 | inactive: 21.6% |
| COC(=O)c1cc(OC)c(OC)cc1NC(=O)c1ccc(OC)cc1 | inactive: 0% |
| COCc1nnc(N)s1 | inconclusive: -34.6% |
| Cc1ccc(-c2nn(-c3ccccc3)cc2CN(Cc2ccccc2)C(=O)c2ccco2)o1 | inconclusive: -43.8% |
| Cc1ccc(S(=O)(=O)/N=C2\C=C(Nc3cccc(C(=O)O)c3)C(=O)c3ccccc32)cc1 | inconclusive: -49% |
| C[C@H]1CN=C(Nc2ccccc2)N1CCCC1CCCCC1 | inconclusive: -49.3% |
| Cc1ccccc1CC1(CO)CCCN(C(=O)c2ccccc2Cl)C1 (configuration not stated) | inconclusive: -34.8% |
| O=C(NCc1cccnc1)C1CCCN(Cc2cnn(-c3ccccc3)c2-n2cccc2)C1 (configuration not stated) | inconclusive: -38.7% |
| CC(=O)Oc1c(-c2ccco2)oc2ccccc2c1=O | inconclusive: -36.1% |
| CCCCN(C(=O)Nc1ccccc1)C1CCS(=O)(=O)C1 (configuration not stated) | inactive: -2.54% |

| Compound | max response, negative = inhibition |
| --- | --- |
| COc1ccc(OCCN(C)Cc2ccccc2)cc1 | inconclusive: -40.8% |
| Cc1ccc(C)c(NC(=O)CSc2nc3c(c(=O)n2C)SC(C)C3)c1 (configuration not stated) | inconclusive: -32.5% |
| CC(C(=O)Nc1ccc(Cl)cc1)N(C)Cc1cccs1 (configuration not stated) | inconclusive: -49.2% |
| C[C@H]1CN([C@@H](C)CO)C(=O)CCCn2nncc2CO[C@H]1CN(C)C(=O)c1ccccc1 | inactive: 12.9% |
| COc1cccc(OCCNCc2ccccc2)c1 | active: -79% |
| CC(OC(=O)CN1C(=O)C2CCCCC2C1=O)C(=O)Nc1ncc(Cl)cc1Cl (configuration not stated) | inconclusive: -33.4% |
| COc1ccc(F)cc1CN1CCN(C(=O)CCC(=O)Nc2nnc(C(C)C)s2)CC1 | inconclusive: -35.1% |
| O=C(O)c1cc(S(=O)(=O)N2CCOCC2)c(Sc2ccccn2)cc1Sc1ccccn1 | inconclusive: -36.2% |
| CCOC(=O)C1=C(C)N(C)C(=S)NC1c1ccc(Cl)cc1Cl (configuration not stated) | inconclusive: -42% |
| CCN(CC)Cc1c(O)ccc2occ(C(=O)c3ccccc3)c12 | inactive: -6.58% |
| c1ccc(N2CCN(CC3CCCCC3)CC2)cc1 | active: -75.3% |
| O=C(NCc1ccc2c(c1)OCO2)Nc1ccc([N+](=O)[O-])cc1 | inconclusive: -41.1% |
| Cc1ccc(C)c(S(=O)(=O)N2CCN(CC(=O)Nc3sccc3C#N)CC2)c1 | inactive: 11.6% |
| O=C(CNC(=O)OCc1ccccc1)Oc1cc2oc(=O)cc(-c3ccccc3)c2cc1Cl | inconclusive: -33.4% |
| NC(=O)CC(NC(=O)Cc1ccc(Br)cc1)c1ccc(NCC2CC2)c([N+](=O)[O-])c1 (configuration not stated) | inconclusive: -44.2% |
| CCOC(=O)N1CCN(C(=O)C2CCN(C(=O)c3ccccc3C)CC2)CC1 | inconclusive: -42.4% |
| CC1CCCC(NC(=O)COC(=O)[C@@H](NC(=O)c2ccccc2Cl)C(C)C)C1C (some centres not stated) | inconclusive: -30.2% |
| Cc1ccc2cc(NC(=O)C3(C)CCN(C)C3)ccc2n1 (configuration not stated) | inactive: 0% |
| COc1ccccc1NC(=O)CCN1CC(C)OC(C)C1 (configuration not stated) | inconclusive: -49.6% |
| O=C(O)c1cc(Nc2cc(Cl)c3nonc3c2[N+](=O)[O-])ccc1O | inconclusive: -33.6% |
| O=C(c1ccc(NS(=O)(=O)c2ccc3[nH]c(=O)[nH]c3c2)cc1)N1CCCCC1 | inconclusive: -48.7% |
| O=[N+]([O-])c1ccc(COc2ccc(CN3CCCCC3)cc2)cc1 | inconclusive: -49.1% |

| Compound | max response, negative = inhibition |
| --- | --- |
| O=C(CCC1CCCCC1)Nc1c2c(nn1-c1ccc(F)cc1)CS(=O)(=O)C2 | inconclusive: -37% |
| CC(NC(=O)Cc1ccc(Br)cc1)c1ccccc1 (configuration not stated) | inactive: -8.62% |
| Cc1cc(C)c2cc(C#N)c(N3CCNCC3)nc2c1 | inconclusive: -38.7% |
| CCOc1ccccc1OCC(=O)Nc1cc(S(=O)(=O)N2CCCCC2)ccc1N1CCN(CC)CC1 | inconclusive: -35.5% |
| CCCN(S(=O)(=O)c1ccccc1F)S(=O)(=O)c1ccccc1Br | inactive: -23.1% |
| O=C1C2C3C=CC(C4CC34)C2C(=O)N1/N=C/c1ccc([N+](=O)[O-])o1 (configuration not stated) | inconclusive: -33.5% |
| Cc1ccc([C@@H]2CC=C(C(=O)O)[C@H](c3ccc(Cl)cc3)N2S(=O)(=O)c2ccc(C)cc2)cc1 | inconclusive: -32% |
| COc1ccc(NS(=O)(=O)c2cccc(C(=O)NCC(c3ccc(OC)cc3)N3CCCCC3)c2)cc1 (configuration not stated) | active: -56.5% |
| COc1cc(OC)cc(C(=O)NC2CCCN(Cc3ccc(Cl)cc3)C2)c1 (configuration not stated) | inactive: -5.83% |
| Fc1cccc2sc(Nc3nnc(-c4ccco4)o3)nc12 | inconclusive: -35% |
| CCC(Oc1ccccc1)C(=O)Nc1ccc(S(=O)(=O)Nc2cnc3ccccc3n2)cc1 (configuration not stated) | inconclusive: -37.2% |
| COc1ccc2cc(C(=O)N/N=C/c3sc4ccccc4c3O)ccc2c1 | inconclusive: -32.5% |
| CCN(CC)CCC(C)OC(c1ccccc1)c1ccccc1 (configuration not stated) | active: -53.1% |
| CCOC(=O)[C@]12CCC=C1N(Cc1ccccc1)C(=O)[C@H](CC(=O)NCCC(C)C)C2 | inconclusive: -33.1% |
| CC1CCC(NC(=O)Cn2c(=O)oc3ccccc32)CC1 (configuration not stated) | active: -50.7% |
| Cc1cccc(N2CCN(C(=O)C(Cc3ccccc3)n3cccc3)CC2)c1C (configuration not stated) | inconclusive: -41.1% |
| COC(=O)c1cc(=O)n(Cc2ccc(OC)c(OC)c2)c(=Nc2ccc(F)cc2)s1 | inactive: -13.3% |
| CCCN1CC=C2C(C#N)=C(N)C(C#N)(C#N)C(c3cc(OC)ccc3OC)C2C1 (configuration not stated) | active: -67.2% |
| CC(C)C[C@H]1COc2cccc(N3CCN(Cc4ccccc4F)CC3)c2S(=O)(=O)N1 | inconclusive: -37.1% |
| COc1ccc(-n2c(=O)n(Cc3ccccc3)c(=O)c3[nH]cnc32)cc1 | inconclusive: -39.5% |
| O=C(Nn1c(O)c(C=C2N=c3ccccc3=N2)sc1=S)c1cccc(Cl)c1 | active: -53.1% |

Sorted by molar mass (high to low): part of the list above.

| Compound | max response, negative = inhibition |
| --- | --- |
| COc1ccc(NS(=O)(=O)c2cccc(C(=O)NCC(c3ccc(OC)cc3)N3CCCCC3)c2)cc1 (configuration not stated) | active: -56.5% |
| COC(=O)c1cc(=O)n(Cc2ccc(OC)c(OC)c2)c(=Nc2ccc(F)cc2)s1 | inactive: -13.3% |
| Cc1cc(C)c2cc(C#N)c(N3CCNCC3)nc2c1 | inconclusive: -38.7% |
